Source: publication PMC5312389
These are yes or no findings as the source states them, for the method shown. Binding seen in cells or lysates may run through a third protein. Some entries that bind do so weakly or less than the wild type. For some assays here: Tags and fused reporters may be left off the sequences shown.

Chains of the proteins cited; added tags and fusions are not shown. Lines headed by an entry give the natural chain unless they say otherwise; changes in a name come on top.
UniProt Q96EB6: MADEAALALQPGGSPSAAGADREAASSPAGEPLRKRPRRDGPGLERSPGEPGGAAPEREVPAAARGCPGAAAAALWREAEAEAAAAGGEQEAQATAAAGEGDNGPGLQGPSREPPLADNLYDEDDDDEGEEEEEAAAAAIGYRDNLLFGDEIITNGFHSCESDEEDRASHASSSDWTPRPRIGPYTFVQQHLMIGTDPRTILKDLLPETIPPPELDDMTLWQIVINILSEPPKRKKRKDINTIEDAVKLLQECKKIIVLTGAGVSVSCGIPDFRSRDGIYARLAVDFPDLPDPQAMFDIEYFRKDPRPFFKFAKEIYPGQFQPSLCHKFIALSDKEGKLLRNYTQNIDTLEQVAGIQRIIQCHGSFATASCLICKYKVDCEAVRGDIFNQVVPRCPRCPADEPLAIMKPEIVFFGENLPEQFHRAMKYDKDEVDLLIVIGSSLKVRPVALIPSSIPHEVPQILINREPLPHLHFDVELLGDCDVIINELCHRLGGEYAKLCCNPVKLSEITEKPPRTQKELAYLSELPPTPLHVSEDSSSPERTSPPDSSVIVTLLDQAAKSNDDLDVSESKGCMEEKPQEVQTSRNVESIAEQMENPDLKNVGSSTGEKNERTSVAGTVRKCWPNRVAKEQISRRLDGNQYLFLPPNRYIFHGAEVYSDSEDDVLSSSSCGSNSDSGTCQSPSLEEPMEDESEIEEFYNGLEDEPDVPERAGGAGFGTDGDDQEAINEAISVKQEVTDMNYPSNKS
UniProt Q09472: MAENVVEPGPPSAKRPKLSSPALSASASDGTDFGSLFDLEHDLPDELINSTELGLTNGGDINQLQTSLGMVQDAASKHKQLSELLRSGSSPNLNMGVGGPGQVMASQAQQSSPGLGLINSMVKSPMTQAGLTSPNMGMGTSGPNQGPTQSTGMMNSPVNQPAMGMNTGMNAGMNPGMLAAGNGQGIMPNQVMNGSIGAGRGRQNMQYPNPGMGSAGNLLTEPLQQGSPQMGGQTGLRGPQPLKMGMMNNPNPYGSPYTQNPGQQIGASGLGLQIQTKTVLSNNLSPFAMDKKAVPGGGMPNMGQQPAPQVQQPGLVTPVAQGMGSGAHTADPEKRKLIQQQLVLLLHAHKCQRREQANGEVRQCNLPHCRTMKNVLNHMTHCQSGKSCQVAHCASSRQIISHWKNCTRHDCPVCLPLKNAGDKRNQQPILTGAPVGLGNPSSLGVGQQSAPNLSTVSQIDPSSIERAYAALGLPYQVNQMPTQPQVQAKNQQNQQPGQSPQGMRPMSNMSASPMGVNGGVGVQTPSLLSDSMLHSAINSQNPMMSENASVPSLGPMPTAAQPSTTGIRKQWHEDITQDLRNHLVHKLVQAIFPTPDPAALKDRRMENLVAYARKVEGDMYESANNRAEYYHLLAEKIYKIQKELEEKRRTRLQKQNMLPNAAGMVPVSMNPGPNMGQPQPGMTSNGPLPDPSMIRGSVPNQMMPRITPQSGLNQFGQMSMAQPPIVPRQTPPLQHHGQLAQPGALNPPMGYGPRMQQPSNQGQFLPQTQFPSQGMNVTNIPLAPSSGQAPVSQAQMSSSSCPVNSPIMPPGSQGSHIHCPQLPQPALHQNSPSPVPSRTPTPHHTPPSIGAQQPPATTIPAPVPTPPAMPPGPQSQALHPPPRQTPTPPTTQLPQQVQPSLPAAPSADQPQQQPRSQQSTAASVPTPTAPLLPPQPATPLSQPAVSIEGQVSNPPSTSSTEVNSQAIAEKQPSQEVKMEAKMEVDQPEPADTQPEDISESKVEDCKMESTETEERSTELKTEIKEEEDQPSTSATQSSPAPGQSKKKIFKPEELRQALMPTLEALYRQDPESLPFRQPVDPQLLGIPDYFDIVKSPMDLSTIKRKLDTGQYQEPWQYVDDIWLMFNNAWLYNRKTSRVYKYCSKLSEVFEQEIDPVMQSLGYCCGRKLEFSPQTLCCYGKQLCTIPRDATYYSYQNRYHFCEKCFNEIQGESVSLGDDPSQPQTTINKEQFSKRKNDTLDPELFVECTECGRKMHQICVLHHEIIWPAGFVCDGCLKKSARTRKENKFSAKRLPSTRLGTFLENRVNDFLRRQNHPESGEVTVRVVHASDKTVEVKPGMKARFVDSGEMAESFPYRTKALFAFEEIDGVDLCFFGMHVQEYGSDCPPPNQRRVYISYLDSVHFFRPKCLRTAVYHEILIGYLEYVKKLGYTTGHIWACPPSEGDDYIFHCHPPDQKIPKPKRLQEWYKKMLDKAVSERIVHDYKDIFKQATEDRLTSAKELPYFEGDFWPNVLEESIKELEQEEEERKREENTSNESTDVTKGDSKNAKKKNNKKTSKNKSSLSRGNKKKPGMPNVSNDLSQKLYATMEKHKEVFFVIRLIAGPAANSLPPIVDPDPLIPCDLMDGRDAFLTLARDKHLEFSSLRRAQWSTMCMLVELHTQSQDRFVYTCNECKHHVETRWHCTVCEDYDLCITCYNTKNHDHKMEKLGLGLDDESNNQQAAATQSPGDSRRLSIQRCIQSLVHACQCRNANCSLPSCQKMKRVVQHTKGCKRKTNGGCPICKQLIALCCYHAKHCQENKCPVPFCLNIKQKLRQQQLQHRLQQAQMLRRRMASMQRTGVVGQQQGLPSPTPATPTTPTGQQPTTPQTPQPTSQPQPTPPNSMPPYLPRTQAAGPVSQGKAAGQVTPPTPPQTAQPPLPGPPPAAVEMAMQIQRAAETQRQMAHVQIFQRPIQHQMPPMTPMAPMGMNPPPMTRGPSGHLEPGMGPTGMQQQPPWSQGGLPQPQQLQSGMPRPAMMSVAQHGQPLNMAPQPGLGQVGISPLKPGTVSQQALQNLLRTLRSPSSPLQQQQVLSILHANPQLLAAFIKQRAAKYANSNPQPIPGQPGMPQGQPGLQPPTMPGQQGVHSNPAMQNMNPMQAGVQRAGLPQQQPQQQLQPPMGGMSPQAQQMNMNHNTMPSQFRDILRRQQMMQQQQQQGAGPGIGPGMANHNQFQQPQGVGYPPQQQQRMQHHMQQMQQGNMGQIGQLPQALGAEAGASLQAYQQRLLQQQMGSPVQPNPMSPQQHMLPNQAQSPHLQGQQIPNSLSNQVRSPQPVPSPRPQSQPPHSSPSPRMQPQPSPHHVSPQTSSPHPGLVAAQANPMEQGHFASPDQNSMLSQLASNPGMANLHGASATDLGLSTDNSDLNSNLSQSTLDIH
UniProt P06493: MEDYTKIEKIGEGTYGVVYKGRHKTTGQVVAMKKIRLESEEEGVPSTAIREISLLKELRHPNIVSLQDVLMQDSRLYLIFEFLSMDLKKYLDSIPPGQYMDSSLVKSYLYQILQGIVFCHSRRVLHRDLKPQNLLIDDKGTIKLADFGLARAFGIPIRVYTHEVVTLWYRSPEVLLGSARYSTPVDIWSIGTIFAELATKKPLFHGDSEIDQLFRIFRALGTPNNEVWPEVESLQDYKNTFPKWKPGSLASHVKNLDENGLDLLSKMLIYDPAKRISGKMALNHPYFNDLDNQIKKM

T1: FOXM1 (Forkhead box transcription factor M1), endogenous in U2OS cells (human (endogenous in U2OS)) (UniProt Q08050)
T1 sequence: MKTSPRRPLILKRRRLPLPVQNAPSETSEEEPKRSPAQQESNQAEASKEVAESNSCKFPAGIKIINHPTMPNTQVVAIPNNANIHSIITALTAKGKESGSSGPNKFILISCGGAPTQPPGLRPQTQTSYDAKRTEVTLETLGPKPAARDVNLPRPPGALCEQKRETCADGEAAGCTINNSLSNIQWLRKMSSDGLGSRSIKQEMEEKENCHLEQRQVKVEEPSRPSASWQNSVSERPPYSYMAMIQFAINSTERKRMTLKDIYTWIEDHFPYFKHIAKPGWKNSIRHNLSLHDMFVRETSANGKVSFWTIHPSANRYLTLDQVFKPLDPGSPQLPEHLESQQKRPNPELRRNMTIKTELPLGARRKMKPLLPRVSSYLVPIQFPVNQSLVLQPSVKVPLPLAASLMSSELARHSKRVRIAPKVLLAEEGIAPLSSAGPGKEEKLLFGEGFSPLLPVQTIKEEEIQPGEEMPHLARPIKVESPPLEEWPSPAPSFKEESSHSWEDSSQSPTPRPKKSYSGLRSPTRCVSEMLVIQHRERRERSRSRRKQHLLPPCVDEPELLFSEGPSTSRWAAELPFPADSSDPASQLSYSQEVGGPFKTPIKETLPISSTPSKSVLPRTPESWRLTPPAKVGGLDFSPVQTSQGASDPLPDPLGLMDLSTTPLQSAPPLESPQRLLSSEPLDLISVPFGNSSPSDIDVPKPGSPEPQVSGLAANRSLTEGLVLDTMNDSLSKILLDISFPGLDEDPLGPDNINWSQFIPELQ

T2: FLAG-FOXM1-5KR, expressed in U2OS cells (UniProt Q08050)
T2 sequence: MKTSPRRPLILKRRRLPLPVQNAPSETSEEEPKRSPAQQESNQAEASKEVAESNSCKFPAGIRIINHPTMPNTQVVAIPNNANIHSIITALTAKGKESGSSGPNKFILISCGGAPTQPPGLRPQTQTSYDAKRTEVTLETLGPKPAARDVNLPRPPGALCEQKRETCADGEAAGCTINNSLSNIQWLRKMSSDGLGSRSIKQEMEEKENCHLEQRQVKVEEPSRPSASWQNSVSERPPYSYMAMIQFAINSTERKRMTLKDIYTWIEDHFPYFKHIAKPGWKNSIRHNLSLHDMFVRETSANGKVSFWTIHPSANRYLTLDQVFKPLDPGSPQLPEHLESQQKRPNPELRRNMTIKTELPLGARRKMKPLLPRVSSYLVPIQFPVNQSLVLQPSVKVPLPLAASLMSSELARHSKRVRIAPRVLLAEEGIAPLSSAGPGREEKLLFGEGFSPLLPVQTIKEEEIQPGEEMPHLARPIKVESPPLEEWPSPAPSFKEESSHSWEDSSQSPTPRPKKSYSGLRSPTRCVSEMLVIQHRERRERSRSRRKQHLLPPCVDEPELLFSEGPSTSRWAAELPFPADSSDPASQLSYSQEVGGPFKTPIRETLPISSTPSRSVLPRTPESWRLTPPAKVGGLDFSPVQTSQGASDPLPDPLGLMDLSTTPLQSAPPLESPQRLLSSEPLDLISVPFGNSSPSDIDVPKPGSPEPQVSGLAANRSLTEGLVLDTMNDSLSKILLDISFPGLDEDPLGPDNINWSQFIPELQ

T3: FLAG-FOXM1 wild type, expressed in U2OS cells (UniProt Q08050)
T3 sequence: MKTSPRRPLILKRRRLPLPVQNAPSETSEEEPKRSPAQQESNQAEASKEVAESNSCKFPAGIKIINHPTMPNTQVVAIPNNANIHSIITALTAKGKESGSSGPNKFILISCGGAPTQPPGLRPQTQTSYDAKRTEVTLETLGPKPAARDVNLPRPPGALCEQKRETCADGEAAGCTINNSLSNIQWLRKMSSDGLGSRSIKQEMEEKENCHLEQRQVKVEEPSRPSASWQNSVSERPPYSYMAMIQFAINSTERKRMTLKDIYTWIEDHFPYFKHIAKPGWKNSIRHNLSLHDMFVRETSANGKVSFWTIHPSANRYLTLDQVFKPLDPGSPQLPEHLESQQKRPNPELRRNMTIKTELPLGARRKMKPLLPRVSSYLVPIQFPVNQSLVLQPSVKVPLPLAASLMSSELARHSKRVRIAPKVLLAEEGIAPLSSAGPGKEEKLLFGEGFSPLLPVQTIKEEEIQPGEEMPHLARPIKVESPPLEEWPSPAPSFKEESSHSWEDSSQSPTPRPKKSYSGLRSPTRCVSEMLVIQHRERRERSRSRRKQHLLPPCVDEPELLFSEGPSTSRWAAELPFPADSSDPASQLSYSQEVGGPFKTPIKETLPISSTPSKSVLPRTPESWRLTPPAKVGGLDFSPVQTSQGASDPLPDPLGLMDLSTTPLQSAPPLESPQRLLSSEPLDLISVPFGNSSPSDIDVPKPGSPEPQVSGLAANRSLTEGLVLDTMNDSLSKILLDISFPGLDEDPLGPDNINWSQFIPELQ


Assays:
[1] = biological target: T1, FOXM1 (Forkhead box transcription factor M1), endogenous in U2OS cells (human (endogenous in U2OS)); test: co-IP; U2OS cell extracts immunoprecipitated with anti-FOXM1, blots of endogenous partners; cells synchronized by double thymidine block and released, or arrested with 300 ng/ml nocodazole for 16 h and released; lysis buffer 50 mM Tris-HCl pH 8.0, 150 mM NaCl, 0.5% NP40, 4 °C
[2] = biological target: T2, FLAG-FOXM1-5KR, expressed in U2OS cells; test: co-IP; U2OS cells transfected with FLAG-FOXM1 WT, 5KR or 5KQ; immunoprecipitation with anti-FLAG, blots with anti-FOXM1, PLK1, Cyclin B1 and CDK1 antibodies
[3] = biological target: T3, FLAG-FOXM1 wild type, expressed in U2OS cells; test: as above
[4] = biological target: HA-SIRT1, expressed in HEK293T cells (UniProt Q96EB6); test: co-IP; HEK293T cells transfected with HA-SIRT1 and FLAG-FOXM1; immunoprecipitation with HA or FLAG antibody (IgG as control), blots with anti-HA and anti-FLAG

| binding [1] | binding [2] | binding [3] | binding [4] | Molecule |
| --- | --- | --- | --- | --- |
| binds | – | – | – | p300, endogenous in U2OS cells (from UniProt Q09472 1-2414) |
| binds | binds | binds | – | Cdk1-cyclin B1 complex, endogenous in U2OS cells (from UniProt P06493 1-297; P14635 1-433) |
| – | – | – | binds | FLAG-FOXM1 wild type, expressed in HEK293T cells (protein, UniProt Q08050 1-763) MKTSPRRPLILKRRRLPLPVQNAPSETSEEEPKRSPAQQESNQAEASKEVAESNSCKFPAGIKIINHPTMPNTQVVAIPNNANIHSIITALTAKGKESGSSGPNKFILISCGGAPTQPPGLRPQTQTSYDAKRTEVTLETLGPKPAARDVNLPRPPGALCEQKRETCADGEAAGCTINNSLSNIQWLRKMSSDGLGSRSIKQEMEEKENCHLEQRQVKVEEPSRPSASWQNSVSERPPYSYMAMIQFAINSTERKRMTLKDIYTWIEDHFPYFKHIAKPGWKNSIRHNLSLHDMFVRETSANGKVSFWTIHPSANRYLTLDQVFKPLDPGSPQLPEHLESQQKRPNPELRRNMTIKTELPLGARRKMKPLLPRVSSYLVPIQFPVNQSLVLQPSVKVPLPLAASLMSSELARHSKRVRIAPKVLLAEEGIAPLSSAGPGKEEKLLFGEGFSPLLPVQTIKEEEIQPGEEMPHLARPIKVESPPLEEWPSPAPSFKEESSHSWEDSSQSPTPRPKKSYSGLRSPTRCVSEMLVIQHRERRERSRSRRKQHLLPPCVDEPELLFSEGPSTSRWAAELPFPADSSDPASQLSYSQEVGGPFKTPIKETLPISSTPSKSVLPRTPESWRLTPPAKVGGLDFSPVQTSQGASDPLPDPLGLMDLSTTPLQSAPPLESPQRLLSSEPLDLISVPFGNSSPSDIDVPKPGSPEPQVSGLAANRSLTEGLVLDTMNDSLSKILLDISFPGLDEDPLGPDNINWSQFIPELQ |
